Test results: paper doi:10.1101/2023.06.30.547268
Results are given in words; binding and its absence hold for the method and conditions named.

By UniProt entry, the sequences of proteins in these tests, tags left out. Where a name states a change or a piece, a line headed by the entry shows the natural chain unless it says otherwise.
UniProt Q18CI2, whole entry, looked up, stated change not applied: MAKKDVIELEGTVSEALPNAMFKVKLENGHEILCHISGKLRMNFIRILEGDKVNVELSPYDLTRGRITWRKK

Biological target: Clostridioides difficile translation initiation factor 1 (Clostridioides difficile) (UniProt Q18CI2)
Assay: NMR 15N relaxation

In the case of “Clostridioides difficile translation initiation factor 1 (from UniProt Q18CI2 1-72)”, the binding is reported as “no binding”.
